Test results from patent US20240189291A1, “Prevention And Treatment Of Atrial Fibrillation/Flutter With Gamma-Ketoaldehyde Scavengers” (Vanderbilt University, priority 2016, published 2024).

Experiment: Oligomer formation of ANP peptides by Western analysis

Substance: WT ANP: wild-type atrial natriuretic peptide (28 amino acids), incubated to form oligomers
- oligomer development after incubation in PBS for 24h (PBS, 24h): does not
- fibrillogenesis / oligomer formation (peptides oligomerized at 23° C. for variable time points, Western analysis): time- and IsoLG-dependent fibrillogenesis
